Experimental data from PMC3988174.
Results are given in words; binding and its absence hold for the method and conditions named. Some binding calls cover weakened binding; strength is not graded here.

B1: Photosystem I subunit D-2 (protein, UniProt Q9SA56 1-204)
chain: MATQAAGIFSPAITTTTSAVKKLHLFSSSHRPKSLSFTKTAIRAEKTESSSAAPAVKEAPVGFTPPQLDPNTPSPIFAGSTGGLLRKAQVEEFYVITWNSPKEQIFEMPTGGAAIMREGPNLLKLARKEQCLALGTRLRSKYKITYQFYRVFPNGEVQYLHPKDGVYPEKANPGREGVGLNMRSIGKNVSPIEVKFTGKQSYDL
B2: Photosystem II subunit X (protein, UniProt Q9SKI3 1-116)
chain: MASTSAMSLVTPLNQTRSSPFLKPLPLKPSKALVATGGRAQRLQVKALKMDKALTGISAAALTASMVIPEIAEAAGSGISPSLKNFLLSIASGGLVLTVIIGVVVGVSNFDPVKRT
B3: Light-Harvesting Chlorophyll-Protein Complex I Subunit A4 (protein, UniProt P27521 1-251)
chain: MATVTTHASASIFRPCTSKPRFLTGSSGRLNRDLSFTSIGSSAKTSSFKVEAKKGEWLPGLASPDYLTGSLAGDNGFDPLGLAEDPENLKWFVQAELVNGRWAMLGVAGMLLPEVFTKIGIINVPEWYDAGKEQYFASSSTLFVIEFILFHYVEIRRWQDIKNPGSVNQDPIFKQYSLPKGEVGYPGGIFNPLNFAPTQEAKEKELANGRLAMLAFLGFVVQHNVTGKGPFENLLQHLSDPWHNTIVQTFN
B4: Geranylgeranyl reductase (protein, UniProt Q39108 1-326)
chain: MLFSGSAIPLSSFCSLPEKPHTLPMKLSPAAIRSSSSSAPGSLNFDLRTYWTTLITEINQKLDEAIPVKHPAGIYEAMRYSVLAQGAKRAPPVMCVAACELFGGDRLAAFPTACALEMVHAASLIHDDLPCMDDDPVRRGKPSNHTVYGSGMAILAGDALFPLAFQHIVSHTPPDLVPRATILRLITEIARTVGSTGMAAGQYVDLEGGPFPLSFVQEKKFGAMGECSAVCGGLLGGATEDELQSLRRYGRAVGMLYQVVDDITEDKKKSYDGGAEKGMMEMAEELKEKAKKELQVFDNKYGGGDTLVPLYTFVDYAAHRHFLLPL
B5: Sugar transporter EDR6-like 7 (protein, UniProt P93051 1-463)
chain: MSKASDAVREPLVDKNMAGSKPDQPWMVYLSTFVAVCGSFAFGSCAGYSSPAQAAIRNDLSLTIAEFSLFGSLLTFGAMIGAITSGPIADLVGRKGAMRVSSAFCVVGWLAIIFAKGVVALDLGRLATGYGMGAFSYVVPIFIAEIAPKTFRGALTTLNQILICTGVSVSFIIGTLVTWRVLALIGIIPCAASFLGLFFIPESPRWLAKVGRDTEFEAALRKLRGKKADISEEAAEIQDYIETLERLPKAKMLDLFQRRYIRSVLIAFGLMVFQQFGGINGICFYTSSIFEQAGFPTRLGMIIYAVLQVVITALNAPIVDRAGRKPLLLVSATGLVIGCLIAAVSFYLKVHDMAHEAVPVLAVVGIMVYIGSFSAGMGAMPWVVMSEIFPINIKGVAGGMATLVNWFGAWAVSYTFNFLMSWSSYGTFLIYAAINALAIVFVIAIVPETKGKTLEQIQAIVNP
B6: MPBQ/MSBQ methyl transferase (protein, UniProt Q9LY74 1-338)
chain: MASLMLNGAITFPKGLGSPGSNLHARSIPRPTLLSVTRTSTPRLSVATRCSSSSVSSSRPSAQPRFIQHKKEAYWFYRFLSIVYDHVINPGHWTEDMRDDALEPADLSHPDMRVVDVGGGTGFTTLGIVKTVKAKNVTILDQSPHQLAKAKQKEPLKECKIVEGDAEDLPFPTDYADRYVSAGSIEYWPDPQRGIREAYRVLKIGGKACLIGPVYPTFWLSRFFSDVWMLFPKEEEYIEWFKNAGFKDVQLKRIGPKWYRGVRRHGLIMGCSVTGVKPASGDSPLQLGPKEEDVEKPVNNPFSFLGRFLLGTLAAAWFVLIPIYMWIKDQIVPKDQPI
B7: Small GTP-binding protein (protein, UniProt Q9FNM5 1-681)
chain: MAMASAMDLSSPPTFFLSGTSTSSPSLRRLSSISVSGFRRHSNRKLQILCQATAGTEPQSGLSVSGSKLAARSGQDRLLKVPISNIRNFSIIAHIDHGKSTLADKLLQVTGTVQNRDMKEQFLDNMDLERERGITIKLQAARMRYVYEDTPFCLNLIDTPGHVDFSYEVSRSLAACEGALLVVDASQGVEAQTLANVYLALENNLEIIPVLNKIDLPGAEPEKVLREIEEVIGLDCSKAIFCSAKEGIGITEILDAIVQRIPAPLDTAGKPLRALIFDSYYDPYRGVIVYFRVIDGKVKKGDRIFFMASGKDYFADEVGVLSPNQIQVDELYAGEVGYIAASVRSVADARVGDTITHYSRKAESSLPGYEEATPMVFCGLFPVDADQFPDLRDALEKLQLNDAALKFEPETSSAMGFGFRCGFLGLLHMEIVQERLEREYNLNLITTAPSVVYRVNSVNGDTTLCSNPSRLPDPGQRKSVEEPYVKIELLTPKDYIGALMELAQERRGEFKEMKYIAENRASILYELPLAEMVGDFFDQLKSRTKGYASMEYSVIGYRESDLIKLDILINAEMVEPLSTIVHRDKAYSVGRALTQKLKELIPRQMFKVPIQACIGSKVIASEALSAIRKDVLAKCYGGDISRKKKLLKKQAAGKKRMKAIGRVDVPQEAFMAVLKLEREVL
B8: Lactoylglutathionelyase (protein, UniProt Q8H0V3 1-185)
chain: MASEARESPANNPGLSTNRDEATKGYIMQQTMFRIKDPKASLDFYSRVLGMSLLKRLDFSEMKFSLYFLGYEDTTTAPTDPTERTVWTFGQPATIELTHNWGTESDPEFKGYHNGNSEPRGFGHIGVTVDDVHKACERFEELGVEFAKKPNDGKMKNIAFIKDPDGYWIEIFDLKTIGTTTVNAA
B9: Fatty acid desaturase 6 (protein, UniProt P46312 1-448)
chain: MASRIADSLFAFTGPQQCLPRVPKLAASSARVSPGVYAVKPIDLLLKGRTHRSRRCVAPVKRRIGCIKAVAAPVAPPSADSAEDREQLAESYGFRQIGEDLPENVTLKDIMDTLPKEVFEIDDLKALKSVLISVTSYTLGLFMIAKSPWYLLPLAWAWTGTAITGFFVIGHDCAHKSFSKNKLVEDIVGTLAFLPLVYPYEPWRFKHDRHHAKTNMLVHDTAWQPVPPEEFESSPVMRKAIIFGYGPIRPWLSIAHWVNWHFNLKKFRASEVNRVKISLACVFAFMAVGWPLIVYKVGILGWVKFWLMPWLGYHFWMSTFTMVHHTAPHIPFKPADEWNAAQAQLNGTVHCDYPSWIEILCHDINVHIPHHISPRIPSYNLRAAHESIQENWGKYTNLATWNWRLMKTIMTVCHVYDKEENYIPFDRLAPEESQPITFLKKAMPNYTA

biological target: atToc132 A- plus G-domains bait (Arabidopsis thaliana) (UniProt Q9SLF3); assay: two-hybrid; split-ubiquitin membrane-based yeast two-hybrid library screen in S. cerevisiae NMY51; bait fused to Cub-LexA-VP16 (pBT3-STE), Arabidopsis seedling cDNA library preys fused to NubG; selection on SD-LWHA with 3-AT; hits re-streaked, retransformed with the same bait, X-Gal filter assay

Row | Binder | binding
1 | B1 | binds
2 | B2 | binds
3 | B3 | binds
4 | B4 | binds
5 | B5 | binds
6 | B6 | binds

biological target: atToc132 A- plus G-domains bait (Arabidopsis thaliana) (UniProt Q9SLF3); assay: two-hybrid; pairwise split-ubiquitin yeast two-hybrid of isolated NubG-preys with Toc159G, Toc132G or Toc132AG bait in NMY51; growth on SD-LWHA (3-AT) and quantitative β-Gal assay, activity relative to a reference bait set to 100%

Row | Binder | binding
7 | B1 | binds
8 | B2 | binds
9 | B3 | binds
10 | B7 | binds
11 | B8 | binds
12 | B9 | binds
13 | B4 | binds
14 | B5 | binds
15 | B6 | binds
